# This is one part of the list.
# Sequences of proteins named here, by UniProt entry; tags and fusion partners are left off. A change or cut given only in a name is not applied to a line headed by its entry.
# UniProt Q6UUV7: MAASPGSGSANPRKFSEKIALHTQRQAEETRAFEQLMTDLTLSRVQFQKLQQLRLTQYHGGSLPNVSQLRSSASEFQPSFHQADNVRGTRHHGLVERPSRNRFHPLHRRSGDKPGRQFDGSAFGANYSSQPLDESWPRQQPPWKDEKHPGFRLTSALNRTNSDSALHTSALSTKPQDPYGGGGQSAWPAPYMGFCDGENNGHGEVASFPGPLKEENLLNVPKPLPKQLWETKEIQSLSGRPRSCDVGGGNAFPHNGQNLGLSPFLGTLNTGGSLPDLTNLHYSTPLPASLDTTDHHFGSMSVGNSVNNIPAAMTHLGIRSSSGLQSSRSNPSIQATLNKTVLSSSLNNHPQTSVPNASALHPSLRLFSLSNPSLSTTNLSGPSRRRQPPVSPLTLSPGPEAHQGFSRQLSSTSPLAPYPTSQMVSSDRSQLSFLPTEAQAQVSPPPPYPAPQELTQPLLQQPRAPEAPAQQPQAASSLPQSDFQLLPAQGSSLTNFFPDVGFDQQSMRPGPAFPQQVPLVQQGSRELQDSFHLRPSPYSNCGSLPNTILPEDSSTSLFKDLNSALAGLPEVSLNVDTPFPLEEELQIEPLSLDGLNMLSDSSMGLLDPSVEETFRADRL
# UniProt Q9HCP0: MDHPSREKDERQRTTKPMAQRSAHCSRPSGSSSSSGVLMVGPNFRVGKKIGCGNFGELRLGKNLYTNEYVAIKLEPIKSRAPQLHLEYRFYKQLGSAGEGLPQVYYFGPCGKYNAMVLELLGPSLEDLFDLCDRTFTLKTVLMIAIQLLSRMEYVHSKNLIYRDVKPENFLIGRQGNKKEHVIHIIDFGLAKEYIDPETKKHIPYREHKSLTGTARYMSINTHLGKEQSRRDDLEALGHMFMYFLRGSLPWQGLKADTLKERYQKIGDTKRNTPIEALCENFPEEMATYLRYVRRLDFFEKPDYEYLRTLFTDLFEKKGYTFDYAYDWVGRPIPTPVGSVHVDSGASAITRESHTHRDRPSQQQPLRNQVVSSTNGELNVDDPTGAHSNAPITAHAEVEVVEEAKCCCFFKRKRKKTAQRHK
# UniProt P12111: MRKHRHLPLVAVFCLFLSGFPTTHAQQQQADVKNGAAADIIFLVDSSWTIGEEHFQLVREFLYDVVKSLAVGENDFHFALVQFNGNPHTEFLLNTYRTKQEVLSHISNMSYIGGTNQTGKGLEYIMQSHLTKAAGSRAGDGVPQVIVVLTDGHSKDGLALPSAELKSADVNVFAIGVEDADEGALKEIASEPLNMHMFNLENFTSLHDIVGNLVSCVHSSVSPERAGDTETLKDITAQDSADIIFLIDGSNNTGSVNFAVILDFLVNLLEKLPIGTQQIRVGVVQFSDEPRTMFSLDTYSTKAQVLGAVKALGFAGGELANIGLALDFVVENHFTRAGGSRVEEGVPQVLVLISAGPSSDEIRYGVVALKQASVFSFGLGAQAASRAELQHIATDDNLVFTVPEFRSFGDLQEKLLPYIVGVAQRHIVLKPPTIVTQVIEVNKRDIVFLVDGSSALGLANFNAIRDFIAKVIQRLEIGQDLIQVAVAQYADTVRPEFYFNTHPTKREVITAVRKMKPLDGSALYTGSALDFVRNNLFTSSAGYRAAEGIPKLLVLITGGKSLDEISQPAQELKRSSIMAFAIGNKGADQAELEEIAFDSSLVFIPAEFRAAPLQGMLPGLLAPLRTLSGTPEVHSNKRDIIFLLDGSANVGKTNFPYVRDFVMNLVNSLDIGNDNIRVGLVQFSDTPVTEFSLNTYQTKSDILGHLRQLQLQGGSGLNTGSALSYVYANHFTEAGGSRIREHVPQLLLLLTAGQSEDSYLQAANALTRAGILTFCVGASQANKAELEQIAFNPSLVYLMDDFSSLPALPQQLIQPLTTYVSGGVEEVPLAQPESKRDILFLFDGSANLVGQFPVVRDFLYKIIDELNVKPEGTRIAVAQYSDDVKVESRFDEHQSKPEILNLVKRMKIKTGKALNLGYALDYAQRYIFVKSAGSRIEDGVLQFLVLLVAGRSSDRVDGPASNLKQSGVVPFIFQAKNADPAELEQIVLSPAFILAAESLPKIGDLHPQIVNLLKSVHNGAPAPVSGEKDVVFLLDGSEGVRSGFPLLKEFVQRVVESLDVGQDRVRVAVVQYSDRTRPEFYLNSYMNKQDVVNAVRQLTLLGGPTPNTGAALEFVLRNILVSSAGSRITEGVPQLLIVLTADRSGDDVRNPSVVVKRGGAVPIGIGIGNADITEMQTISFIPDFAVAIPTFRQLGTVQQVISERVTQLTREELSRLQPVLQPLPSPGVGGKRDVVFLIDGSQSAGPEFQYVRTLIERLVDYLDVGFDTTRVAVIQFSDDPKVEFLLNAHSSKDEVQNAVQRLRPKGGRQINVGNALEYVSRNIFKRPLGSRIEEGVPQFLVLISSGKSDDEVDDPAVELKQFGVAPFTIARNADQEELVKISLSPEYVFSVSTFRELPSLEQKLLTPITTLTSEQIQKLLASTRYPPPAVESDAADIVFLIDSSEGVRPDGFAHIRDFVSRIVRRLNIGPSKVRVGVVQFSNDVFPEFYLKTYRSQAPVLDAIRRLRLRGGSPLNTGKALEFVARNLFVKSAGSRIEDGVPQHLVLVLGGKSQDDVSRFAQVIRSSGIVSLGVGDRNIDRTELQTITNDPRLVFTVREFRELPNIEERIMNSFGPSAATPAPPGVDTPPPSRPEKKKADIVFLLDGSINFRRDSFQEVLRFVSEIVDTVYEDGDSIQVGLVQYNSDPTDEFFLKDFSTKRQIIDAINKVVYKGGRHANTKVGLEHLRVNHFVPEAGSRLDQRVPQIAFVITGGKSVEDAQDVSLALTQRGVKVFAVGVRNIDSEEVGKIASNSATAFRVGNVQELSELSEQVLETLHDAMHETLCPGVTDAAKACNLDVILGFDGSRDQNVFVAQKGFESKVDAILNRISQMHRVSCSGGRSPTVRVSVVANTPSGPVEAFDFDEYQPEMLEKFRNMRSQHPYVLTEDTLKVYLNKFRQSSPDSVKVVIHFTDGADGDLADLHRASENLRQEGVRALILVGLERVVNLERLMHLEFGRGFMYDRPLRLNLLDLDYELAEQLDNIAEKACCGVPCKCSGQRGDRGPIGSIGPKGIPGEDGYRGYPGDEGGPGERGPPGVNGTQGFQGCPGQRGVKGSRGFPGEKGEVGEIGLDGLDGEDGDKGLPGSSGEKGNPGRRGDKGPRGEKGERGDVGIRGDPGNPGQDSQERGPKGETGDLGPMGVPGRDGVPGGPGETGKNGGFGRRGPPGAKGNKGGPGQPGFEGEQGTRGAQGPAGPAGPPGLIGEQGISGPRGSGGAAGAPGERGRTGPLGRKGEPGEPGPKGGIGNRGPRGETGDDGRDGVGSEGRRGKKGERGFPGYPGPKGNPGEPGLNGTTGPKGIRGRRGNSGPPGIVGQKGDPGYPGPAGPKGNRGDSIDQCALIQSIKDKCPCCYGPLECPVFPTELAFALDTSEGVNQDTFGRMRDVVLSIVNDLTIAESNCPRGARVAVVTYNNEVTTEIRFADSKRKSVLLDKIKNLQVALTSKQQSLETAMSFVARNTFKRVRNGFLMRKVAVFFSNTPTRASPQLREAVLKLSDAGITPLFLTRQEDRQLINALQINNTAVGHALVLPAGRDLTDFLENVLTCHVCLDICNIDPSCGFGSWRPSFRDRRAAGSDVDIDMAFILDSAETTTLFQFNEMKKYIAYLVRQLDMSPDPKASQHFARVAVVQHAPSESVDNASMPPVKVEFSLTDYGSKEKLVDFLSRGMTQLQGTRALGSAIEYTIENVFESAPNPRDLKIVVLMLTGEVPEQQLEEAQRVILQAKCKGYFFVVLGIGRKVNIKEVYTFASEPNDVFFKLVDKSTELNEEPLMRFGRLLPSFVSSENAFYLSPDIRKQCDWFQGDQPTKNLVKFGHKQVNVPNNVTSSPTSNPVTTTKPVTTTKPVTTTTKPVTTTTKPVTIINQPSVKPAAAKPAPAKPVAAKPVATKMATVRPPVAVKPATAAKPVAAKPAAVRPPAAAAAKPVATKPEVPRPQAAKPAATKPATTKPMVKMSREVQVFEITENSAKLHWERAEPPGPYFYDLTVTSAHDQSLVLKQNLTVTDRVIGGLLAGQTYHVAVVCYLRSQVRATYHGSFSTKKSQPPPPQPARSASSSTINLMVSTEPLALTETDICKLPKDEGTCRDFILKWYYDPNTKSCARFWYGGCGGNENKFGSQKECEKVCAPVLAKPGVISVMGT
# UniProt Q9HCH3: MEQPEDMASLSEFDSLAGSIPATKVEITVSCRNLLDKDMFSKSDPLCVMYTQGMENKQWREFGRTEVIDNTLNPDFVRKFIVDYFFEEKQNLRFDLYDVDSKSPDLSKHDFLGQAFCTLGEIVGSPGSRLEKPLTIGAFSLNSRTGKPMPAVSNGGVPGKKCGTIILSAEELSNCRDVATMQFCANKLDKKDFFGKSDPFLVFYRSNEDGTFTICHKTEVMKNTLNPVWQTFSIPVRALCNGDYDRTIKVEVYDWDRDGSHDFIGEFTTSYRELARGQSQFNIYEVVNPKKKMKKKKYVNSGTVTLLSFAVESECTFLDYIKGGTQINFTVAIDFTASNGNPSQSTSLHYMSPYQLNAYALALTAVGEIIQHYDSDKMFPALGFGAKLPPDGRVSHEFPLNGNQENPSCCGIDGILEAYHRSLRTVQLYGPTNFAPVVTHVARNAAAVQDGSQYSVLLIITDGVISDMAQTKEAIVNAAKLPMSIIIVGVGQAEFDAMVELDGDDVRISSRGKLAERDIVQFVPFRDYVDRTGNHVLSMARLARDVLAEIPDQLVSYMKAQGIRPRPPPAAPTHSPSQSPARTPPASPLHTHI
# UniProt Q7Z4G1, whole entry, looked up: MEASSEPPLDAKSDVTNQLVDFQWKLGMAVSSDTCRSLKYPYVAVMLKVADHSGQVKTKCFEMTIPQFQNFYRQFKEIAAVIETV
# UniProt P48729: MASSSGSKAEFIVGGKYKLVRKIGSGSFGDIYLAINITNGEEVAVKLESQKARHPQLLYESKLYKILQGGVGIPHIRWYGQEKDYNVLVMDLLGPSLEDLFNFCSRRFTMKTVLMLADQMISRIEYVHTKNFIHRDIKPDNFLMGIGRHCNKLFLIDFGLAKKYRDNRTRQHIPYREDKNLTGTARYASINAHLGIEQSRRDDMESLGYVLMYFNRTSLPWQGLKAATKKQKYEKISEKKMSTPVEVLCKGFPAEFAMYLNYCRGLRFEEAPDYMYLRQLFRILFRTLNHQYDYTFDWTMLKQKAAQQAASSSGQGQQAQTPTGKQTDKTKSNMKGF
# UniProt Q9UBL6: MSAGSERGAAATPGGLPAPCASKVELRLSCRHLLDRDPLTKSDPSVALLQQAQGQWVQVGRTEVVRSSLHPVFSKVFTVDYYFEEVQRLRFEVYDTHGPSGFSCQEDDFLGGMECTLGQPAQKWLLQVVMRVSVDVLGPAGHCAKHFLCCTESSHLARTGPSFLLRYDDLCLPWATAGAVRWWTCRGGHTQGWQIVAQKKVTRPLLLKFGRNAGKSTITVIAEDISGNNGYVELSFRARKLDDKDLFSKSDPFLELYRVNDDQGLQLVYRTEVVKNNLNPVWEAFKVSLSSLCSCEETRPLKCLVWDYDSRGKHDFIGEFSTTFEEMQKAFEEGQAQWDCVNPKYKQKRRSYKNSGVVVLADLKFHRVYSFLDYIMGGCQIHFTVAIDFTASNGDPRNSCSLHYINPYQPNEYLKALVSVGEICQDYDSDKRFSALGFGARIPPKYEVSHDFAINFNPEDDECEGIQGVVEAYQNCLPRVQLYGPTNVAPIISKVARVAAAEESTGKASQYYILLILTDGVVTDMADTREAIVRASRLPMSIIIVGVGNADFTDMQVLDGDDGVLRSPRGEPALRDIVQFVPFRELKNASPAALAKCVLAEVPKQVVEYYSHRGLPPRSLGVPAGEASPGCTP
# UniProt P29373: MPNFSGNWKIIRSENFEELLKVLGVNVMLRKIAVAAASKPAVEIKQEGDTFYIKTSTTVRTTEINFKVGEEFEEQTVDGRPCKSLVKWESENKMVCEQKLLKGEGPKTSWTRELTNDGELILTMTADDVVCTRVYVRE
# UniProt Q70SY1: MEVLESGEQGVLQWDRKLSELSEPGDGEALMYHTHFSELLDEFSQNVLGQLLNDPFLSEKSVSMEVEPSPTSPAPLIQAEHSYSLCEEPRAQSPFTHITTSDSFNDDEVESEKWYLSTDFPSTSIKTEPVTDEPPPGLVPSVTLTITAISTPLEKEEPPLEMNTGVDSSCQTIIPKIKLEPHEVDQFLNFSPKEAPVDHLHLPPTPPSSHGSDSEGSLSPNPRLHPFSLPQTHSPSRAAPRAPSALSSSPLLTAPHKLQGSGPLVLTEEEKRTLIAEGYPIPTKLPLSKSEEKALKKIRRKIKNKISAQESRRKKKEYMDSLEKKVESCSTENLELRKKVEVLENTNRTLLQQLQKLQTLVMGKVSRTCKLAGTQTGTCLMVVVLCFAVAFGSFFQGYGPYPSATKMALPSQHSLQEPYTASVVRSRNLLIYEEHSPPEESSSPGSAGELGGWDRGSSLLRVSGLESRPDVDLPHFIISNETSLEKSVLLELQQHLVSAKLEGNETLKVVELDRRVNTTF
# UniProt P15954, whole entry, looked up: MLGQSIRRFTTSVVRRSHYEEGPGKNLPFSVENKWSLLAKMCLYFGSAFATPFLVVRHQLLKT
# Experiments:
# Assay in all cases: log2 fold change, soluble protein after heating vs DMSO (PISA); higher = thermal stabilisation; K562 cells, 10 uM, 30 min; active = over 0.2 and 3.5 SD of the protein, either way, in both replicates (recomputed)
# filanesib = compound: CON(C)C(=O)N1N=C(c2cc(F)ccc2F)S[C@@]1(CCCN)c1ccccc1 [filanesib]
# Summary of the method: (§1)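 Thermal stability values are relative to control samples and come from duplicates. They are expressed as log2 fold changes. For measurement, K562 cells (2×10^6 cells/mL) received 10 μM compound for 30 min, and aliquots were heated for 3 min over 48°C-58°C, pooled, and extracted at 4°C in PBS with 0.5% NP-40. Soluble protein, the supernatant after 21,000xg for 90 min, was quantified by TMTpro 16plex LC-MS/MS with equalised channel sums.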
# zotarolimus = compound: CO[C@H]1C[C@@H]2CC[C@@H](C)[C@@](O)(O2)C(=O)C(=O)N2CCCC[C@H]2C(=O)O[C@H]([C@H](C)C[C@@H]2CC[C@H](n3cnnn3)[C@H](OC)C2)CC(=O)[C@H](C)/C=C(\C)[C@@H](O)[C@@H](OC)C(=O)[C@H](C)C[C@H](C)/C=C/C=C/C=C/1C [zotarolimus]
# Summary of the method: as §1
# alisertib = compound: COc1cc(Nc2ncc3c(n2)-c2ccc(Cl)cc2C(c2c(F)cccc2OC)=NC3)ccc1C(=O)O [alisertib]
# Summary of the method: as §1
# [1] = compound: COc1cc2nc(-c3cc(F)ccc3O)nc(N[C@@H]3CNC[C@H]3C(C)(C)O)c2cc1OC
# Summary of the method: as §1
# [2] = compound: COc1cccc2cc(-c3nc([C@H]4CC[C@H](C(=O)O)CC4)n4ncnc(N)c34)[nH]c12
# Summary of the method: as §1
# lapatinib = compound: CS(=O)(=O)CCNCc1ccc(-c2ccc3ncnc(Nc4ccc(OCc5cccc(F)c5)c(Cl)c4)c3c2)o1 [lapatinib]
# Summary of the method: as §1
# [3] = compound: COC1=CC=C(C=C1)CN2C=CC3=C2C=C(C=C3)C(=O)NO
# Summary of the method: as §1
# idasanutlin = compound: COc1cc(C(=O)O)ccc1NC(=O)[C@@H]1N[C@@H](CC(C)(C)C)[C@](C#N)(c2ccc(Cl)cc2F)[C@H]1c1cccc(Cl)c1F [idasanutlin]
# Summary of the method: as §1
# gefitinib = compound: COc1cc2ncnc(Nc3ccc(F)c(Cl)c3)c2cc1OCCCN1CCOCC1 [gefitinib]
# Summary of the method: as §1
# pictilisib = compound: CS(=O)(=O)N1CCN(Cc2cc3nc(-c4cccc5[nH]ncc45)nc(N4CCOCC4)c3s2)CC1 [pictilisib]
# Summary of the method: as §1
target,measurement,setting,value
CRTC3 (UniProt Q6UUV7),log2 fold change,filanesib,inactive: 0.015
same,log2 fold change,zotarolimus,inactive: -0.059
same,log2 fold change,alisertib,inactive: 0.202
same,log2 fold change,[1],active: -0.86
same,log2 fold change,[2],inactive: -0.107
same,log2 fold change,lapatinib,inactive: 0.078
CSNK1G2 (UniProt P78368),log2 fold change,[3],inactive: -0.063
same,log2 fold change,filanesib,inactive: -0.064
same,log2 fold change,idasanutlin,inactive: -0.035
same,log2 fold change,alisertib,inactive: 0.029
same,log2 fold change,gefitinib,inactive: -0.015
same,log2 fold change,[2],inactive: -0.274
same,log2 fold change,pictilisib,inactive: 0.076
CRYM (UniProt Q14894),log2 fold change,zotarolimus,inactive: -0.449
same,log2 fold change,pictilisib,inactive: 0.016
COMMD3-BMI1 (UniProt R4GMX3),log2 fold change,filanesib,inactive: -0.08
same,log2 fold change,zotarolimus,inactive: -0.12
same,log2 fold change,idasanutlin,inactive: 0.093
same,log2 fold change,[1],active: 0.519
same,log2 fold change,gefitinib,inactive: -0.029
same,log2 fold change,lapatinib,inactive: -0.445
same,log2 fold change,pictilisib,inactive: 0.135
CRAT (UniProt P43155),log2 fold change,zotarolimus,inactive: 0.035
same,log2 fold change,[1],inactive: 0.401
same,log2 fold change,lapatinib,inactive: -0.025
CSNK1G1 (UniProt Q9HCP0),log2 fold change,filanesib,inactive: -0.125
same,log2 fold change,alisertib,inactive: -0.15
same,log2 fold change,gefitinib,inactive: 0.213
same,log2 fold change,[2],inactive: -0.11
CREM isoform 1 (UniProt Q03060),log2 fold change,filanesib,inactive: -0.025
same,log2 fold change,zotarolimus,inactive: -0.101
same,log2 fold change,idasanutlin,inactive: -0.016
same,log2 fold change,alisertib,inactive: -0.056
same,log2 fold change,[1],inactive: 0.079
same,log2 fold change,gefitinib,inactive: -0.022
same,log2 fold change,[2],inactive: 0.062
same,log2 fold change,lapatinib,inactive: -0.01
same,log2 fold change,pictilisib,inactive: 0.203
CRY1 (UniProt Q16526),log2 fold change,[1],inactive: -0.09
same,log2 fold change,gefitinib,inactive: 0.102
same,log2 fold change,lapatinib,inactive: 0.038
same,log2 fold change,pictilisib,inactive: 0.315
CRY2 (UniProt Q49AN0),log2 fold change,idasanutlin,inactive: 0.199
same,log2 fold change,gefitinib,inactive: 0.081
CPTP (UniProt Q5TA50),log2 fold change,[3],inactive: -0.076
same,log2 fold change,filanesib,inactive: -0.141
same,log2 fold change,alisertib,inactive: 0.141
same,log2 fold change,[2],inactive: -0.267
COL6A3 (UniProt P12111),log2 fold change,[1],inactive: 0.089
same,log2 fold change,lapatinib,inactive: -0.237
same,log2 fold change,pictilisib,inactive: -0.291
CPNE5 (UniProt Q9HCH3),log2 fold change,zotarolimus,inactive: -0.102
CP (UniProt P00450),log2 fold change,[1],inactive: -0.257
same,log2 fold change,lapatinib,inactive: -0.179
COX10 (UniProt Q12887),log2 fold change,[3],inactive: -0.027
same,log2 fold change,zotarolimus,inactive: -0.239
same,log2 fold change,idasanutlin,inactive: -0.102
same,log2 fold change,alisertib,inactive: -0.157
same,log2 fold change,[1],inactive: -0.074
same,log2 fold change,gefitinib,inactive: -0.148
same,log2 fold change,[2],inactive: 0.175
same,log2 fold change,lapatinib,inactive: -0.095
same,log2 fold change,pictilisib,inactive: -0.205
COMMD6 isoform 2 (UniProt Q7Z4G1),log2 fold change,pictilisib,inactive: -0.285
CSNK1A1 isoform 3 (UniProt P48729),log2 fold change,[1],inactive: -0.006
same,log2 fold change,[2],inactive: 0.091
same,log2 fold change,lapatinib,inactive: 0.129
CPNE7 (UniProt Q9UBL6),log2 fold change,[3],inactive: 0.001
same,log2 fold change,zotarolimus,inactive: 0.018
same,log2 fold change,idasanutlin,inactive: -0.091
same,log2 fold change,alisertib,inactive: -0.207
same,log2 fold change,[1],inactive: 0.085
same,log2 fold change,gefitinib,inactive: 0.068
same,log2 fold change,[2],inactive: 0.047
same,log2 fold change,lapatinib,inactive: -0.061
COLEC11 isoform 10 (UniProt Q9BWP8),log2 fold change,[3],inactive: 0.041
same,log2 fold change,zotarolimus,inactive: 0.011
same,log2 fold change,idasanutlin,inactive: 0.134
same,log2 fold change,alisertib,inactive: 0.042
same,log2 fold change,gefitinib,inactive: 0.129
same,log2 fold change,[2],inactive: -0.006
CORO2A (UniProt Q92828),log2 fold change,filanesib,inactive: -0.035
same,log2 fold change,zotarolimus,inactive: -0.049
same,log2 fold change,idasanutlin,inactive: -0.071
same,log2 fold change,alisertib,inactive: 0.035
same,log2 fold change,[1],inactive: -0.057
same,log2 fold change,gefitinib,inactive: -0.097
same,log2 fold change,[2],inactive: -0.02
same,log2 fold change,lapatinib,inactive: -0.011
same,log2 fold change,pictilisib,inactive: -0.11
CRADD (UniProt P78560),log2 fold change,[3],inactive: -0.156
same,log2 fold change,zotarolimus,inactive: 0.305
same,log2 fold change,idasanutlin,inactive: -0.053
COMMD1 (UniProt Q8N668),log2 fold change,[3],inactive: 0.054
same,log2 fold change,filanesib,inactive: 0.06
same,log2 fold change,alisertib,inactive: -0.151
same,log2 fold change,[1],inactive: 0.029
same,log2 fold change,gefitinib,inactive: -0.01
same,log2 fold change,[2],inactive: -0.04
same,log2 fold change,lapatinib,inactive: -0.029
same,log2 fold change,pictilisib,inactive: 0.006
CRNN (UniProt Q9UBG3),log2 fold change,alisertib,inactive: 0.105
same,log2 fold change,[2],inactive: -0.12
CSGALNACT2 (UniProt Q8N6G5),log2 fold change,[3],inactive: 0.035
same,log2 fold change,zotarolimus,inactive: -0.076
same,log2 fold change,idasanutlin,inactive: -0.026
same,log2 fold change,gefitinib,inactive: -0.075
CRABP2 (UniProt P29373),log2 fold change,alisertib,inactive: 0.97
same,log2 fold change,[2],inactive: -0.217
same,log2 fold change,pictilisib,inactive: -0.098
CREB3L2 (UniProt Q70SY1),log2 fold change,[3],inactive: 0.584
same,log2 fold change,zotarolimus,inactive: 0.042
same,log2 fold change,idasanutlin,inactive: 0.045
same,log2 fold change,alisertib,inactive: -0.022
same,log2 fold change,gefitinib,inactive: -0.154
same,log2 fold change,[2],inactive: 0.176
COX7C (UniProt P15954),log2 fold change,[3],inactive: 0.12
same,log2 fold change,filanesib,inactive: 0.009
same,log2 fold change,idasanutlin,inactive: 0.114
same,log2 fold change,alisertib,inactive: -0.016
same,log2 fold change,[1],inactive: -0.069
same,log2 fold change,gefitinib,inactive: 0.059
same,log2 fold change,[2],inactive: -0.053
same,log2 fold change,lapatinib,inactive: 0.008
same,log2 fold change,pictilisib,inactive: -0.288
CPLX1 (UniProt O14810),log2 fold change,[3],inactive: 0.039
same,log2 fold change,idasanutlin,inactive: -0.2
same,log2 fold change,alisertib,inactive: -0.153
same,log2 fold change,[2],inactive: 0.229
same,log2 fold change,pictilisib,inactive: 0.13
CRTC1 isoform 2 (UniProt Q6UUV9),log2 fold change,[3],active: -0.39
same,log2 fold change,filanesib,inactive: -0.002
same,log2 fold change,idasanutlin,inactive: -0.021
same,log2 fold change,[1],inactive: 0.138
same,log2 fold change,lapatinib,inactive: 0.028
same,log2 fold change,pictilisib,inactive: -0.013

# Rewritten with bars between the fields: entries from further up
target | measurement | setting | value
CRADD (UniProt P78560) | log2 fold change | zotarolimus | inactive: 0.305
same | log2 fold change | idasanutlin | inactive: -0.053
COMMD1 (UniProt Q8N668) | log2 fold change | [3] | inactive: 0.054
same | log2 fold change | filanesib | inactive: 0.06
same | log2 fold change | alisertib | inactive: -0.151
same | log2 fold change | [1] | inactive: 0.029
same | log2 fold change | gefitinib | inactive: -0.01
same | log2 fold change | [2] | inactive: -0.04
same | log2 fold change | lapatinib | inactive: -0.029
same | log2 fold change | pictilisib | inactive: 0.006
CRNN (UniProt Q9UBG3) | log2 fold change | alisertib | inactive: 0.105
same | log2 fold change | [2] | inactive: -0.12
CSGALNACT2 (UniProt Q8N6G5) | log2 fold change | [3] | inactive: 0.035
same | log2 fold change | zotarolimus | inactive: -0.076
same | log2 fold change | idasanutlin | inactive: -0.026
same | log2 fold change | gefitinib | inactive: -0.075
CRABP2 (UniProt P29373) | log2 fold change | alisertib | inactive: 0.97
same | log2 fold change | [2] | inactive: -0.217
same | log2 fold change | pictilisib | inactive: -0.098
CREB3L2 (UniProt Q70SY1) | log2 fold change | [3] | inactive: 0.584
same | log2 fold change | zotarolimus | inactive: 0.042
same | log2 fold change | idasanutlin | inactive: 0.045
same | log2 fold change | alisertib | inactive: -0.022
same | log2 fold change | gefitinib | inactive: -0.154
same | log2 fold change | [2] | inactive: 0.176
COX7C (UniProt P15954) | log2 fold change | [3] | inactive: 0.12
same | log2 fold change | filanesib | inactive: 0.009
same | log2 fold change | idasanutlin | inactive: 0.114
same | log2 fold change | alisertib | inactive: -0.016
same | log2 fold change | [1] | inactive: -0.069
same | log2 fold change | gefitinib | inactive: 0.059
same | log2 fold change | [2] | inactive: -0.053
same | log2 fold change | lapatinib | inactive: 0.008
same | log2 fold change | pictilisib | inactive: -0.288
CPLX1 (UniProt O14810) | log2 fold change | [3] | inactive: 0.039
